Data on one substance can be found in patent US20110301095A1.

Chains of the proteins cited; added tags and fusions are not shown. Lines headed by an entry give the natural chain unless they say otherwise; changes in a name come on top. A line that says so, or that is headed by a name, gives the form on record, which may keep a tag or linker.
UniProt Q09472: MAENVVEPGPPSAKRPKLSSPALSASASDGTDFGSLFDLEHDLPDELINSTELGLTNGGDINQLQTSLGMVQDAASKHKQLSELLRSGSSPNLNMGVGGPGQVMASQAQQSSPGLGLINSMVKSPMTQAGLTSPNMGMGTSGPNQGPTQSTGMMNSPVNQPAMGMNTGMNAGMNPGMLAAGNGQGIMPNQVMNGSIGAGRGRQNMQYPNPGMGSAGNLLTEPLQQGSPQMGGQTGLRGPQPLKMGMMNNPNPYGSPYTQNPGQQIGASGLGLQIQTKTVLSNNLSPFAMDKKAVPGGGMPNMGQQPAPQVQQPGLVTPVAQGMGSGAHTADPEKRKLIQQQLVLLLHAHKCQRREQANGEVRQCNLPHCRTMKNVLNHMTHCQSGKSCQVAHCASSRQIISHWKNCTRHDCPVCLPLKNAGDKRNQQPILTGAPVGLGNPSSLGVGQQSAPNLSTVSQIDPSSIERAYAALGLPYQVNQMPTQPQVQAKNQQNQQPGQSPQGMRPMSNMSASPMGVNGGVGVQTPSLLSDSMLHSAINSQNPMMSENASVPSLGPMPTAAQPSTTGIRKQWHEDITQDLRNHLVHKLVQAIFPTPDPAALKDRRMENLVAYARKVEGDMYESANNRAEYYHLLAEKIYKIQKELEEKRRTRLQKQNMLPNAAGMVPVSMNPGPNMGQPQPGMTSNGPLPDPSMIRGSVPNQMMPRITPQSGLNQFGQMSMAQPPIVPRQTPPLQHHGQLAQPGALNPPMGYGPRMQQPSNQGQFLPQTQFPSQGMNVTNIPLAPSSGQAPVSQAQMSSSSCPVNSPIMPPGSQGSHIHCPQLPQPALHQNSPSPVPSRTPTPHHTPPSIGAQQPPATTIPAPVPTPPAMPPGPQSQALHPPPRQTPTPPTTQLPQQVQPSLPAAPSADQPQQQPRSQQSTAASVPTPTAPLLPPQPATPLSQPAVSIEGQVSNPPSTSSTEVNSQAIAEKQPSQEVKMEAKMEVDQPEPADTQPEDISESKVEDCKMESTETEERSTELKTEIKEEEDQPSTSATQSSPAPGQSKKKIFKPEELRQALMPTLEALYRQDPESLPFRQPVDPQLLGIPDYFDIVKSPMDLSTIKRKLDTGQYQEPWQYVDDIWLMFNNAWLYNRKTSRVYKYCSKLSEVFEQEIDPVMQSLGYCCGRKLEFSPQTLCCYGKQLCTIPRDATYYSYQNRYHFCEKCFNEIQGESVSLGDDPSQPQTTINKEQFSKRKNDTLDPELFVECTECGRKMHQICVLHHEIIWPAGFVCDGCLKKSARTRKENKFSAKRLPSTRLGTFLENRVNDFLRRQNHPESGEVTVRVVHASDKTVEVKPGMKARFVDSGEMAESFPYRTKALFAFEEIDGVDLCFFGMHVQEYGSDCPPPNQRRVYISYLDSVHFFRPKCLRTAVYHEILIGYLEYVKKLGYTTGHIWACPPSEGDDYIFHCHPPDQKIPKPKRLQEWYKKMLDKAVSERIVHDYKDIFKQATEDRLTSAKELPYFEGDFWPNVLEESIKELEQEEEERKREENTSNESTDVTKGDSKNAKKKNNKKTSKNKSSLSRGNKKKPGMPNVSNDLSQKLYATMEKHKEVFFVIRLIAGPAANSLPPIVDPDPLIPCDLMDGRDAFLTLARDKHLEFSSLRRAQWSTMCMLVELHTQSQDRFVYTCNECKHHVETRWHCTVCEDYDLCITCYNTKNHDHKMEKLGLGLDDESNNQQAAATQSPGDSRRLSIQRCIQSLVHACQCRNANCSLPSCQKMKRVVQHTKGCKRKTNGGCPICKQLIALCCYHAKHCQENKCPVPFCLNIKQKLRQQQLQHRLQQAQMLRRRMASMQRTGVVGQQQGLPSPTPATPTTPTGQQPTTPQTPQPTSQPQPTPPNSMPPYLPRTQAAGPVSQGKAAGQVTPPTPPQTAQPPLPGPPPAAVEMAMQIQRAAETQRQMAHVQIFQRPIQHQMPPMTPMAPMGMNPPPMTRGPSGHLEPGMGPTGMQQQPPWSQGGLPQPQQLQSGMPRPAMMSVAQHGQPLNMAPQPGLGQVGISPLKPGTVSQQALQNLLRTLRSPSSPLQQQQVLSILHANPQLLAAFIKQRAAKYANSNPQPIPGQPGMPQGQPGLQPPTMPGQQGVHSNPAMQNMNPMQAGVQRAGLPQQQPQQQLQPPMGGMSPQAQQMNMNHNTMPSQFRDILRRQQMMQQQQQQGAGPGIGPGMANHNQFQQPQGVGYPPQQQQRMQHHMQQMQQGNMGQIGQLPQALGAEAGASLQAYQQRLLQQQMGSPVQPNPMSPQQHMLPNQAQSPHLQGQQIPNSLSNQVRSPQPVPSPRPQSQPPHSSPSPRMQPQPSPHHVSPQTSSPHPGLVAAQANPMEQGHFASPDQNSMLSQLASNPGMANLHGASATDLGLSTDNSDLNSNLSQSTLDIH
HIF-1α translated in vitro without tag (mouse HIF-1α in T vector) (Q61221, form named): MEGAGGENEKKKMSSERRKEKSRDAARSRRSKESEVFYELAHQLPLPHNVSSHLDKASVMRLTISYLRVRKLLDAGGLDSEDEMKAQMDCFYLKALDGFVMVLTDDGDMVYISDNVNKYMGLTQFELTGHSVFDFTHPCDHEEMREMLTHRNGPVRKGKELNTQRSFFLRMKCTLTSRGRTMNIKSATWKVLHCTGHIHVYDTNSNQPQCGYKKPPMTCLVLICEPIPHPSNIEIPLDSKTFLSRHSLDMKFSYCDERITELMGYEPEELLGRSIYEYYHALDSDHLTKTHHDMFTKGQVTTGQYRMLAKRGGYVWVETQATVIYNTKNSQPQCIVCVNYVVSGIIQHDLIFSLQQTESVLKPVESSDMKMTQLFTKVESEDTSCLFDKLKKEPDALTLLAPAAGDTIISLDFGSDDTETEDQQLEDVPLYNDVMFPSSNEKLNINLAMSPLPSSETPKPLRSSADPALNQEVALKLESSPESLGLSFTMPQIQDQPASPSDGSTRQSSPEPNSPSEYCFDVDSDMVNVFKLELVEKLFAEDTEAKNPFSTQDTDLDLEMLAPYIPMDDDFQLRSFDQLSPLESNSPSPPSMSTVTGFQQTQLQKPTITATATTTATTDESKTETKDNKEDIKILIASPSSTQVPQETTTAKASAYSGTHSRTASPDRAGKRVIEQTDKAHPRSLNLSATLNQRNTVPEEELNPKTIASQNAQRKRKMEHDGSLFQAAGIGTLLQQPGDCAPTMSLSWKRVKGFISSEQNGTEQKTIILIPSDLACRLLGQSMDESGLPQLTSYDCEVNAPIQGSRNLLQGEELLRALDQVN

No constants are given. Whether binding was seen depends on the method and setting. In cells and extracts the contact can be indirect. Some results given as binding are weak or reduced against the parent protein; the word gives no strength.

For this experiment, the target named is Flag-p300 (human) (UniProt Q09472). Kind of experiment: in vitro pull-down of 35S-HIF-1α, with or without 35S-FoxA2, on M2 beads with Flag-p300 (FIG. 4K); binding increased by FoxA2.

“HIF-1α translated in vitro without tag (mouse HIF-1α in T vector) (from UniProt Q61221 1-822)”: the binding result is reported as “binds”.
